Test results as given in PubChem BioAssay AID256 (DTP/NCI, 2004).
The list does not hold the whole screen: it is rich in T/C values a quarter to a half above the control, in often repeated tests (any T/C) and in doses without a T/C. Further doses and runs are listed elsewhere. T/C: endpoint of the treated group in % of that of the vehicle group. Some doses have a count of surviving animals in place of a T/C: the source holds a T/C of zero for them, seemingly a mark for toxic or unscored doses. Some survivor counts are full or nearly so, which does not show that the dose was tolerated: the source hardly ever lists a survival T/C far under the control, and the zero likely stands for such cases as well. Counts of survivors are from the toxicity check (mostly the fifth day) where no day follows; animals may have died later. Schedule codes are those of the source, read here as Q, the interval in days (D) or hours (H), X, the number of doses. Some entries hold several experiments; the results are listed from low to high. Where survival is the endpoint, the PubChem record calls one and a half times the control and up active, and a quarter to a half above the control has no call in these data; cut-offs in other NCI protocols can differ. Counts like (3×) say how often a value occurs here. Some T/C values carry the count of animals alive at the toxicity check (mostly the fifth day); where none is given, no animal had died by that day.

Tested on: CD2F1 mice, L1210 leukemia ip, survival T/C
Test: NCI In Vivo Anticancer Drug Screen. Data for tumor model L1210 Leukemia (intraperitoneal) in CD2F1 (CDF1) mice
Settings: higher T/C = longer survival
Summary of the method: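 Activity against a transplanted murine tumor was judged by comparing the compound group with a vehicle group. The outcome in the treated animals was divided by that in the controls.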

[1] = T/C endpoint: mean survival time, dose: 400.0 mg/kg/injection, schedule: Q01DX001 (ip), vehicle: saline with Tween-80
[2] = T/C endpoint: mean survival time, dose: 400.0 mg/kg/injection, schedule: Q01DX009 (ip), vehicle: saline with Tween-80
[3] = T/C endpoint: mean survival time, dose: 200.0 mg/kg/injection, schedule: Q01DX001 (ip), vehicle: saline with Tween-80
[4] = T/C endpoint: mean survival time, dose: 400.0 mg/kg/injection, schedule: Q04DX002 (ip), vehicle: saline with Tween-80

NCCCNCCCCNC(=O)C(O)NC(=O)CCCCCCN=C(N)N (stereo not drawn)
T/C (T/C endpoint: median survival time, dose: 0.19 mg/kg/injection, schedule: Q01DX009 (ip), vehicle: saline): 146 % of control
T/C (T/C endpoint: median survival time, dose: 0.39 mg/kg/injection, schedule: Q01DX005 (iv), vehicle: saline): 139 % of control
T/C (T/C endpoint: median survival time, dose: 0.39 mg/kg/injection, schedule: Q01DX009 (ip), vehicle: saline): 140 % of control [5 of 6 alive]
T/C (T/C endpoint: median survival time, dose: 0.78 mg/kg/injection, schedule: Q01DX005 (iv), vehicle: saline): 148 % of control
T/C (T/C endpoint: median survival time, dose: 0.78 mg/kg/injection, schedule: Q01DX009 (ip), vehicle: saline, evaluated on day 30): 179, 190, 200, 207 % of control
T/C (T/C endpoint: median survival time, dose: 0.78 mg/kg/injection, schedule: Q01DX009 (ip), vehicle: saline, evaluated on day 40): 161 % of control
T/C (T/C endpoint: median survival time, dose: 0.78 mg/kg/injection, schedule: Q01DX009 (ip), vehicle: saline, evaluated on day 60): 213 % of control
T/C (T/C endpoint: median survival time, dose: 1.56 mg/kg/injection, schedule: Q01DX009 (ip), vehicle: saline, evaluated on day 30): 191, 195, 204, 224 % of control
T/C (T/C endpoint: median survival time, dose: 1.56 mg/kg/injection, schedule: Q01DX009 (ip), vehicle: saline, evaluated on day 40): 162 % of control
T/C (T/C endpoint: median survival time, dose: 1.56 mg/kg/injection, schedule: Q01DX009 (ip), vehicle: saline, evaluated on day 60): 219 % of control
T/C (T/C endpoint: median survival time, dose: 3.12 mg/kg/injection, schedule: Q01DX009 (ip), vehicle: saline, evaluated on day 30): 203, 206, 220, 229 % of control
T/C (T/C endpoint: median survival time, dose: 3.12 mg/kg/injection, schedule: Q01DX009 (ip), vehicle: saline, evaluated on day 40): 180 % of control [5 of 6 alive]
T/C (T/C endpoint: median survival time, dose: 3.12 mg/kg/injection, schedule: Q01DX009 (ip), vehicle: saline, evaluated on day 60): 223 % of control
T/C (T/C endpoint: median survival time, dose: 6.25 mg/kg/injection, schedule: Q01DX009 (ip), vehicle: saline, evaluated on day 30): 200, 212, 220, 228 % of control
T/C (T/C endpoint: median survival time, dose: 6.25 mg/kg/injection, schedule: Q01DX009 (ip), vehicle: saline, evaluated on day 40): 188 % of control
T/C (T/C endpoint: median survival time, dose: 6.25 mg/kg/injection, schedule: Q01DX009 (ip), vehicle: saline, evaluated on day 60): 225 % of control
T/C (T/C endpoint: median survival time, dose: 6.7 mg/kg/injection, schedule: Q01DX009 (ip), vehicle: saline, evaluated on day 30): 220 and 229 % of control
T/C (T/C endpoint: median survival time, dose: 6.7 mg/kg/injection, schedule: Q01DX009 (ip), vehicle: saline, evaluated on day 45): 233 and 235 % of control
T/C (T/C endpoint: median survival time, dose: 7.88 mg/kg/injection, schedule: Q03HX008 (sc), vehicle: water): 144 % of control
survivor count (T/C endpoint: median survival time, dose: 10.0 mg/kg/injection, schedule: Q01DX005 (iv), vehicle: other): 5 of 10
T/C (T/C endpoint: median survival time, dose: 10.0 mg/kg/injection, schedule: Q01DX009 (ip), vehicle: saline, evaluated on day 30): 227 and 232 % of control
T/C (T/C endpoint: median survival time, dose: 10.0 mg/kg/injection, schedule: Q01DX009 (ip), vehicle: saline, evaluated on day 45): 230 and 240 % of control
survivor count (T/C endpoint: median survival time, dose: 12.5 mg/kg/injection, schedule: Q01DX005 (iv), vehicle: saline): 2 of 10
T/C (T/C endpoint: median survival time, dose: 12.5 mg/kg/injection, schedule: Q01DX009 (ip), vehicle: saline, evaluated on day 30): 214, 228, 244, 247 % of control
T/C (T/C endpoint: median survival time, dose: 12.5 mg/kg/injection, schedule: Q01DX009 (ip), vehicle: saline, evaluated on day 40): 189 % of control
T/C (T/C endpoint: median survival time, dose: 12.5 mg/kg/injection, schedule: Q01DX009 (ip), vehicle: saline, evaluated on day 60): 250 % of control
T/C (T/C endpoint: median survival time, dose: 15.0 mg/kg/injection, schedule: Q01DX009 (ip), vehicle: saline, evaluated on day 30): 233 and 235 % of control
T/C (T/C endpoint: median survival time, dose: 15.0 mg/kg/injection, schedule: Q01DX009 (ip), vehicle: saline, evaluated on day 45): 241 % of control (2×)
T/C (T/C endpoint: median survival time, dose: 15.75 mg/kg/injection, schedule: Q03HX008 (sc), vehicle: water): 144 % of control
survivor count (T/C endpoint: median survival time, dose: 16.67 mg/kg/injection, schedule: Q01DX005 (iv), vehicle: other): 0 of 10
survivor count (T/C endpoint: median survival time, dose: 16.67 mg/kg/injection, schedule: Q01DX005 (iv), vehicle: saline): 0 of 10
T/C (T/C endpoint: median survival time, dose: 22.5 mg/kg/injection, schedule: Q01DX009 (ip), vehicle: saline, evaluated on day 30): 239 and 245 % of control
T/C (T/C endpoint: median survival time, dose: 22.5 mg/kg/injection, schedule: Q01DX009 (ip), vehicle: saline, evaluated on day 45): 165 and 247 % of control
survivor count (T/C endpoint: median survival time, dose: 25.0 mg/kg/injection, schedule: Q01DX005 (iv), vehicle: saline): 0 of 10
T/C (T/C endpoint: median survival time, dose: 25.0 mg/kg/injection, schedule: Q01DX009 (ip), vehicle: saline, evaluated on day 30): 228, 231, 241, 265 % of control
T/C (T/C endpoint: median survival time, dose: 25.0 mg/kg/injection, schedule: Q01DX009 (ip), vehicle: saline, evaluated on day 60): 100 % of control [9 of 10 alive]
survivor count (T/C endpoint: median survival time, dose: 45.0 mg/kg/injection, schedule: Q01DX005 (sc), vehicle: water): 3 of 10 on day 7
survivor count (T/C endpoint: median survival time, dose: 50.0 mg/kg/injection, schedule: Q01DX005 (iv), vehicle: saline): 0 of 10
survivor count (T/C endpoint: median survival time, dose: 50.0 mg/kg/injection, schedule: Q01DX009 (ip), vehicle: saline): 1 of 10
survivor count (T/C endpoint: median survival time, dose: 63.0 mg/kg/injection, schedule: Q03HX008 (sc), vehicle: water): 0 of 10

CC(C)=NNS(=O)(=O)c1ccccc1
survivor count (T/C endpoint: mean survival time, dose: 200.0 mg/kg/injection, schedule: Q01DX005 (ip), vehicle: Klucel (hydroxypropylcellulose) (HPC)): 0 of 6
survivor count (T/C endpoint: mean survival time, dose: 400.0 mg/kg/injection, schedule: Q01DX005 (ip), vehicle: Klucel (hydroxypropylcellulose) (HPC)): 0 of 6

COc1ccc(OC)c2[nH]c(=O)c(CCC(=O)O)nc12
survivor count [1]: 0 of 6

CCCCNC(=O)Oc1ccc(C(=O)OCC)cc1
survivor count (T/C endpoint: mean survival time, dose: 200.0 mg/kg/injection, schedule: Q01DX009 (ip), vehicle: saline with Tween-80): 3 of 6
survivor count [2]: 2 of 6

N=c1sc2ccccc2n1CC(=O)O
survivor count [3]: 2 of 6
survivor count [1]: 3 of 6

O=c1cc(Nc2ccc(Br)cc2)[nH]c(=O)[nH]1
survivor count (T/C endpoint: mean survival time, dose: 400.0 mg/kg/injection, schedule: Q01DX001 (ip), vehicle: other): 1 of 6

Cc1ccc(S(=O)(=O)Oc2ccc(Br)cc2)cc1
survivor count [4]: 3 of 3

C=CCSc1cccc2ccccc12
survivor count [2]: 4 of 6

O=C1C(O)=Cc2coc(=O)c3ccc(-c4ccccc4)c1c23
survivor count [3]: 2 of 6
survivor count [1]: 1 of 6

CN(Cc1ccc2nc(N)nc(N)c2n1)c1ccc(C(=O)NC(CCC(=O)O)C(=O)O)cc1 (stereo not drawn)
T/C (T/C endpoint: mean survival time, dose: 0.03 mg/kg/injection, schedule: Q01DX005 (ip), vehicle: sodium bicarbonate): 126 % of control
T/C (T/C endpoint: mean survival time, dose: 0.06 mg/kg/injection, schedule: Q01DX005 (ip), vehicle: sodium bicarbonate): 138 % of control
T/C (T/C endpoint: mean survival time, dose: 0.25 mg/kg/injection, schedule: Q01DX005 (ip), vehicle: sodium bicarbonate): 148 % of control
survivor count (T/C endpoint: mean survival time, dose: 0.5 mg/kg/injection, schedule: Q01DX005 (ip), vehicle: sodium bicarbonate): 6 of 6
survivor count (T/C endpoint: mean survival time, dose: 1.0 mg/kg/injection, schedule: Q01DX005 (ip), vehicle: sodium bicarbonate): 3 of 6 and 6 of 6
survivor count (T/C endpoint: mean survival time, dose: 2.0 mg/kg/injection, schedule: Q01DX005 (ip), vehicle: sodium bicarbonate): 3 of 6
survivor count (T/C endpoint: mean survival time, dose: 4.0 mg/kg/injection, schedule: Q01DX005 (ip), vehicle: sodium bicarbonate): 4 of 6
survivor count (T/C endpoint: mean survival time, dose: 8.0 mg/kg/injection, schedule: Q01DX005 (ip), vehicle: sodium bicarbonate): 6 of 6
survivor count (T/C endpoint: mean survival time, dose: 16.0 mg/kg/injection, schedule: Q01DX005 (ip), vehicle: sodium bicarbonate): 5 of 6
T/C (T/C endpoint: mean survival time, dose: 250.0 micrograms/kg/injection, schedule: Q01DX005 (ip), vehicle: sodium bicarbonate): 148 % of control
survivor count (T/C endpoint: mean survival time, dose: 500.0 micrograms/kg/injection, schedule: Q01DX005 (ip), vehicle: sodium bicarbonate): 5 of 6

CCN(CC)C(=S)N1C(=O)C2C3CCC(O3)C2C1=O (stereo not drawn)
survivor count (T/C endpoint: mean survival time, dose: 50.0 mg/kg/injection, schedule: Q04DX002 (ip), vehicle: saline with Tween-80): 1 of 3
survivor count (T/C endpoint: mean survival time, dose: 100.0 mg/kg/injection, schedule: Q04DX002 (ip), vehicle: saline with Tween-80): 0 of 3

O=C(O)/C=C(/C(=O)O)c1cccn1Cc1ccccc1
survivor count (T/C endpoint: mean survival time, dose: 200.0 mg/kg/injection, schedule: Q04DX002 (ip), vehicle: saline with Tween-80): 1 of 3
survivor count [4]: 0 of 3

CC(C)(C)Sc1cccnc1 (tested in a mixture with another compound)
survivor count [2]: 0 of 6
